The results in this text go back to the supplement of paper PMC7666118.

Amino acid sequences for entries named in this document (tags omitted). A change or cut given only in a name is not applied to a line headed by its entry.
UniProt P23588, whole entry: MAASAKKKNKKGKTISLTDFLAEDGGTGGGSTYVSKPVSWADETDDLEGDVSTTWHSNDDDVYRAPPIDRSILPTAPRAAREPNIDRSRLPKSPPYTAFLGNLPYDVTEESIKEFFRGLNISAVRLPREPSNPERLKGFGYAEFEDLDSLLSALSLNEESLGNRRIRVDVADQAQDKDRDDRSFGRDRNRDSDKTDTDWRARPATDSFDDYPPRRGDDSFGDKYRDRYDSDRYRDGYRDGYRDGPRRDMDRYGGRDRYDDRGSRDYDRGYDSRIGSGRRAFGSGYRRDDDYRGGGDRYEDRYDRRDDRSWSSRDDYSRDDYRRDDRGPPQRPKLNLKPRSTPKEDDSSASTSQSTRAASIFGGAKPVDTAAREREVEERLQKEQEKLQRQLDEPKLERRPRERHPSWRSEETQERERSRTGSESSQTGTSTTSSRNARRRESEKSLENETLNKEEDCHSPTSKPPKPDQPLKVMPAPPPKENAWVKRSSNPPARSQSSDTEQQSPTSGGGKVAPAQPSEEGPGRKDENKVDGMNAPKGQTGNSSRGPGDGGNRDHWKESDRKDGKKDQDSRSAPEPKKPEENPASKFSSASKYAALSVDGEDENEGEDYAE
UniProt P41567, whole entry: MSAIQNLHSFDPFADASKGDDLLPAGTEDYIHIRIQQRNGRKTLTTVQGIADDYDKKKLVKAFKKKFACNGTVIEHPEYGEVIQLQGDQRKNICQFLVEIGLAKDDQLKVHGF
UniProt Q96C19: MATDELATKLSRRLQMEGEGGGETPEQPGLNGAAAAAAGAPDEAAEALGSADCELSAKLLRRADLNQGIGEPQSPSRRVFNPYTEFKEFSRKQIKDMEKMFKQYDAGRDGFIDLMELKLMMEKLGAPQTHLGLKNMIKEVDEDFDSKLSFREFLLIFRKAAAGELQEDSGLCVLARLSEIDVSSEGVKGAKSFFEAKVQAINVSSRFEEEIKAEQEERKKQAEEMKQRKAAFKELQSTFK
UniProt P13929, whole entry: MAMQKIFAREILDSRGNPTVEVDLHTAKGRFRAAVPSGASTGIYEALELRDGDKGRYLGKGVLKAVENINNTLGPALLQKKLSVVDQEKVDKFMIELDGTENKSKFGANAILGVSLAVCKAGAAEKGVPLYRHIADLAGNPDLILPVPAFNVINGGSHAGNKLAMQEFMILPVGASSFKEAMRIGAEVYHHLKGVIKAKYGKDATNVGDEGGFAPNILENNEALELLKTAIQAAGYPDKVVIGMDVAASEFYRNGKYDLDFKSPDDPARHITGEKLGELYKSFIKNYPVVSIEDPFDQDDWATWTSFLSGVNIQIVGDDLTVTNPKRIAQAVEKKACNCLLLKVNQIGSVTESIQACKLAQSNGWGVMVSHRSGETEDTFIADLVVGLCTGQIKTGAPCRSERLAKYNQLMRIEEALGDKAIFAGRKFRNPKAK
UniProt P09104, whole entry: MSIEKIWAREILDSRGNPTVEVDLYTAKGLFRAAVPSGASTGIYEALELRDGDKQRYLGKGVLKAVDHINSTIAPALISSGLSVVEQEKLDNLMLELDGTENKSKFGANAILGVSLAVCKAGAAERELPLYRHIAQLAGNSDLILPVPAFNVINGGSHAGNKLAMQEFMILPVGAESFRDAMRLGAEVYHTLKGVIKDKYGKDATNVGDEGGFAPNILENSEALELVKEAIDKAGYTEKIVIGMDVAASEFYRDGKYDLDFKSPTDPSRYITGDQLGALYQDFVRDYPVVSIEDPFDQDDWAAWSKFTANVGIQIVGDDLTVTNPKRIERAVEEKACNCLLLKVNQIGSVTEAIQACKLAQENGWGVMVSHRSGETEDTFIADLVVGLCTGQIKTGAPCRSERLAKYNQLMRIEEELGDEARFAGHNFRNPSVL
UniProt Q9Y6I3: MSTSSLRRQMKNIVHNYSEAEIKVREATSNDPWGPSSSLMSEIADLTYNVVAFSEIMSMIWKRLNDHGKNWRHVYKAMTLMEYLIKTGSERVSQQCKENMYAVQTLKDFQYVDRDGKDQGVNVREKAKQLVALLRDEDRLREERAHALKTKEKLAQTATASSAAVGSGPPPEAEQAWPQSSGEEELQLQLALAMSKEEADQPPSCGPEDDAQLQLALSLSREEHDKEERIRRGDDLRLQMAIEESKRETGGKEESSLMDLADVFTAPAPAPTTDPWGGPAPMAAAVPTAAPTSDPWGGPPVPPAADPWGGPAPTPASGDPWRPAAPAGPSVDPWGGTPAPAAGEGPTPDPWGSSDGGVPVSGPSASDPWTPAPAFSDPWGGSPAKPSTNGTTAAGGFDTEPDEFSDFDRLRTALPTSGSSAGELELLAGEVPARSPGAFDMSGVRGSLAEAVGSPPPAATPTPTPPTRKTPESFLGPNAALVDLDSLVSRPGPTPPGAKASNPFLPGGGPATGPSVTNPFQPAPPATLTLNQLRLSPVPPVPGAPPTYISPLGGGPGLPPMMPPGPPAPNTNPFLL
UniProt Q6UWZ7: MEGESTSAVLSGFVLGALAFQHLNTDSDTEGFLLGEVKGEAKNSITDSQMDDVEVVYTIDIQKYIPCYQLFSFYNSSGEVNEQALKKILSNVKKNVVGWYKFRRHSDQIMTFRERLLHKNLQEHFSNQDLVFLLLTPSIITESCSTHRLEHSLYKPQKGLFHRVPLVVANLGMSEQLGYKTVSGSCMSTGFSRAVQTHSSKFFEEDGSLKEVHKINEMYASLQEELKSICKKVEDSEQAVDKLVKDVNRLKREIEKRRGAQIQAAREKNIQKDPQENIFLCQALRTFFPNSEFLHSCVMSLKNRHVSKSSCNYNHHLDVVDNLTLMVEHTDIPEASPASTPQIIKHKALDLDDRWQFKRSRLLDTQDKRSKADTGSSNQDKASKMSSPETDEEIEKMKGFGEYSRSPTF
UniProt Q8IY81: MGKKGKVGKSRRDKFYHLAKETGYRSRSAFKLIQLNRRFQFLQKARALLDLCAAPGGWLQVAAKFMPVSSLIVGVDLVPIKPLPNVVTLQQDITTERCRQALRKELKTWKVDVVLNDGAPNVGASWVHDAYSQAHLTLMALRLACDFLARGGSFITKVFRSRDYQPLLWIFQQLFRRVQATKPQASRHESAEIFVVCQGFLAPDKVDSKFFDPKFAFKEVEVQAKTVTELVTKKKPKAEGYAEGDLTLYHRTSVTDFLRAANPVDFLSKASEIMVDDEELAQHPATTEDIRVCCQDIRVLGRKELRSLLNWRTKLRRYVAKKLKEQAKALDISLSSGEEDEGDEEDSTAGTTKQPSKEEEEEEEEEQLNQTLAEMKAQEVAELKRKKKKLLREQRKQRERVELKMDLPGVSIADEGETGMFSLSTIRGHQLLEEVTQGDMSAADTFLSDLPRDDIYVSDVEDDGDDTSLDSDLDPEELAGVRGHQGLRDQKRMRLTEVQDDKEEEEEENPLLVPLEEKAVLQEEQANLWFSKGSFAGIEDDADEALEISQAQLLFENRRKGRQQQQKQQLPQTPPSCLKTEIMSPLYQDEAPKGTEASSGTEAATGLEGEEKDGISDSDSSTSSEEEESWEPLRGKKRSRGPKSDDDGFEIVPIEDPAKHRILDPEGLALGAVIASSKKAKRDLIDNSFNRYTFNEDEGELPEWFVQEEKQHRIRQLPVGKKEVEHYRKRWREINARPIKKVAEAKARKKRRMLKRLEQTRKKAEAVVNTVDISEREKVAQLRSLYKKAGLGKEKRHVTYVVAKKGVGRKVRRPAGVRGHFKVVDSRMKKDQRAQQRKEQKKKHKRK
UniProt Q9NRA8: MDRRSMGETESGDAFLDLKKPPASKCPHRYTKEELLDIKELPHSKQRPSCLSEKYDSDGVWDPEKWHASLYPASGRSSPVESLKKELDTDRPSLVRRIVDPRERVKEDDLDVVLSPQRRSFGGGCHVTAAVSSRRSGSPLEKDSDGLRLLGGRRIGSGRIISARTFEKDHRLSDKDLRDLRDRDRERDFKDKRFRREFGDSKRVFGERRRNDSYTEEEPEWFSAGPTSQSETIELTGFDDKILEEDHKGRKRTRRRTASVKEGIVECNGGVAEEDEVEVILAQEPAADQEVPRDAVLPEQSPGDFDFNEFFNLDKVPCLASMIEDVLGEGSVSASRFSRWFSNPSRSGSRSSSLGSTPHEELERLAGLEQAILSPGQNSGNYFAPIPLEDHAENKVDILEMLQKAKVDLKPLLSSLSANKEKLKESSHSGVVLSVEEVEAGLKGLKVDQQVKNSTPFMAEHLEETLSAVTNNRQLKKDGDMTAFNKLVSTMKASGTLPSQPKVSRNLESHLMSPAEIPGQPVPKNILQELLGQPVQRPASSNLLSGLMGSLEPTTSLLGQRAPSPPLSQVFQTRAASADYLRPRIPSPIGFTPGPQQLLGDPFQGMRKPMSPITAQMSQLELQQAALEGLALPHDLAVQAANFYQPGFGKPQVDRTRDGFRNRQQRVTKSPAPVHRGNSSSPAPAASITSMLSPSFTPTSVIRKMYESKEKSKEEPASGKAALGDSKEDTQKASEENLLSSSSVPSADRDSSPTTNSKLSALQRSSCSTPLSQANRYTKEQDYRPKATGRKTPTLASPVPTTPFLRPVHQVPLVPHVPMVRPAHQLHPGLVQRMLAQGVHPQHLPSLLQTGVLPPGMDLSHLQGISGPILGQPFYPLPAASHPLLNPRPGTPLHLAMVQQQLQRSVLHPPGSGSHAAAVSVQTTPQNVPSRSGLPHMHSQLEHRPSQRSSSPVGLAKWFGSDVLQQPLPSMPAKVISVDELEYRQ
UniProt Q6P1L5: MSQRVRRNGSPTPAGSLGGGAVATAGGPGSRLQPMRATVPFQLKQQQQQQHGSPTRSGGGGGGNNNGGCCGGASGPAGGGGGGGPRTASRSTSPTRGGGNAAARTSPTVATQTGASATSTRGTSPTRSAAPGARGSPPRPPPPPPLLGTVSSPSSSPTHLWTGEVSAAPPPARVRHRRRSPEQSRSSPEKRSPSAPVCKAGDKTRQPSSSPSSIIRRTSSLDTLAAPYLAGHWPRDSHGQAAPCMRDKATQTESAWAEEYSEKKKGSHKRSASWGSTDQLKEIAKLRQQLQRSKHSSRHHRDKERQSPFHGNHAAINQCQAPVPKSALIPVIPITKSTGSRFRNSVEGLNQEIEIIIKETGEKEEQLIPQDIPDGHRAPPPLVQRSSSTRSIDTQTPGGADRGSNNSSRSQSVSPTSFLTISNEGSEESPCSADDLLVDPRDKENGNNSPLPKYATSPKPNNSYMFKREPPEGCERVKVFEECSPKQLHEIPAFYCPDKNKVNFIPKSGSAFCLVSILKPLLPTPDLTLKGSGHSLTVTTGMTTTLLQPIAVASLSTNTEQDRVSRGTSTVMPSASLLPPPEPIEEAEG
UniProt P06730, whole entry: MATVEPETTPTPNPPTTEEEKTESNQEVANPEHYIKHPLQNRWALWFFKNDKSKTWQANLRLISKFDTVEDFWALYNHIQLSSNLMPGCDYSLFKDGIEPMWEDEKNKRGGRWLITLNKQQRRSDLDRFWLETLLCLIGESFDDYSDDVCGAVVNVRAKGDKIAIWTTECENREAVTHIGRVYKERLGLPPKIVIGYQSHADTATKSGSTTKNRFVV
UniProt Q0VG06: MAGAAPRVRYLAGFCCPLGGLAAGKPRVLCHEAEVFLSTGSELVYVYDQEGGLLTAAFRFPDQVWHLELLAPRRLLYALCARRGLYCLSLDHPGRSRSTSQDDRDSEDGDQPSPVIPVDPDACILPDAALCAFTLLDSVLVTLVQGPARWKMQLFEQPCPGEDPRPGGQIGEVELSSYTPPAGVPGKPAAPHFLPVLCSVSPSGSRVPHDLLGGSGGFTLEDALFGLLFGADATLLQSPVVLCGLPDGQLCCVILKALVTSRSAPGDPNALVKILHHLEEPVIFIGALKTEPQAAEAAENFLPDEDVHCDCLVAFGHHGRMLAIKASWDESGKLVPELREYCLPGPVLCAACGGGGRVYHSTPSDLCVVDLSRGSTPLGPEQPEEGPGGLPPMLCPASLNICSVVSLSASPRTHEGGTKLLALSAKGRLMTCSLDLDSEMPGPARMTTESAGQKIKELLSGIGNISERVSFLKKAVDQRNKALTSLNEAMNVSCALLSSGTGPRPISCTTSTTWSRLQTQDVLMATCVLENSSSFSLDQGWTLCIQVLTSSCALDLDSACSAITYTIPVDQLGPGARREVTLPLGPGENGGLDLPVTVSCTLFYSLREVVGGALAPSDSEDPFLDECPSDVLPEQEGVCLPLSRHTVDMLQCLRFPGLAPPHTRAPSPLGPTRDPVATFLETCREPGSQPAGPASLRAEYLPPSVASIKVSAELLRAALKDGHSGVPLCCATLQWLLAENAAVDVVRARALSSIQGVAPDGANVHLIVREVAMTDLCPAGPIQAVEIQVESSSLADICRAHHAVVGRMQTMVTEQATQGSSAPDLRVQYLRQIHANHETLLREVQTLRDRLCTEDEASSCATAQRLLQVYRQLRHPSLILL
UniProt Q9GZU8: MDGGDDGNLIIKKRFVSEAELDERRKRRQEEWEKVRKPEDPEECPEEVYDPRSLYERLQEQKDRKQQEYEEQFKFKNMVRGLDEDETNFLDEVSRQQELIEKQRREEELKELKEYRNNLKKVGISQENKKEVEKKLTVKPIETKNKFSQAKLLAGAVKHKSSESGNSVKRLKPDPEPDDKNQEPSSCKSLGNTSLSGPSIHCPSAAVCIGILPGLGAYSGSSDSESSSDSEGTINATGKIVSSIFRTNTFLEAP

This is one part of the list.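 The calls were made as follows: active = dose-dependent thermal stabilisation significant by F-test of dose-response against flat model at 10% FDR; inactive = not significant.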

Compound in the test: Nc1nc2c(ncn2[C@@H]2O[C@H](COP(=O)(O)OP(=O)(O)OP(=O)(O)O)[C@@H](O)[C@H]2O)c(=O)[nH]1
As to the kind of experiment: dose-dependent thermal stabilisation call (2D-TPP, DLPTP, 10% FDR) (binary (1 = stabilised)); higher = stabilised by the compound. The note with it: system: Jurkat gel-filtered lysate; concentration range 1-500 µM.
For the target EIF4B (UniProt P23588), the “dose-dependent thermal stabilisation call” value is inactive: 0.
For FLNA (UniProt P21333) the value was inactive: 0; for ERP29 (UniProt P30040), inactive: 0.
For EIF1 (UniProt P41567) the value was inactive: 0.
The result for EFHD2 (UniProt Q96C19) reads inactive: 0; that for FEN1 (UniProt P39748), inactive: 0.
On to ENO3 (UniProt P13929), for which the “dose-dependent thermal stabilisation call” value was inactive: 0.
For FRYL (UniProt O94915) the value was inactive: 0; for ENO2 (UniProt P09104), inactive: 0.
Regarding FASN (UniProt P49327), the “dose-dependent thermal stabilisation call” value was active: 1.
Turning to EPN1 (UniProt Q9Y6I3), the “dose-dependent thermal stabilisation call” value is inactive: 0.
The result for EMD (UniProt P50402) reads inactive: 0; that for FAM175A (UniProt Q6UWZ7), inactive: 0.
Consider FH (UniProt P07954), for which the “dose-dependent thermal stabilisation call” value is inactive: 0.
Consider FTSJ3 (UniProt Q8IY81), for which the “dose-dependent thermal stabilisation call” value is inactive: 0.
Regarding EIF4ENIF1 (UniProt Q9NRA8), the “dose-dependent thermal stabilisation call” value was inactive: 0.
Consider EHBP1 (UniProt Q8NDI1), for which the “dose-dependent thermal stabilisation call” value is inactive: 0.
For FAM117B (UniProt Q6P1L5) the value was inactive: 0; for FCHSD2 (UniProt O94868), inactive: 0.
The result for EIF6 (UniProt P56537) reads inactive: 0; that for EIF4E (UniProt P06730), active: 1; that for FAAP100 (UniProt Q0VG06), inactive: 0.
Regarding FRA10AC1 (UniProt Q70Z53), the “dose-dependent thermal stabilisation call” value is inactive: 0.
The result for FAF1 (UniProt Q9UNN5) reads inactive: 0; that for FAM192A (UniProt Q9GZU8), inactive: 0; that for ENGASE (UniProt Q8NFI3), inactive: 0.
The result for EIF4A2 (UniProt Q14240) reads inactive: 0.
